# PubChem BioAssay AID1259425, University of Nebraska Medical Center, 2018
# Purpose: 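Seek colon cancer weak points whose silencing resembles KSR1 loss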 (primary screen)
# System: HCT116 human colon cancer cells
# Knock-down reagent: siRNA pool against human genes, 50 nM siRNA
# Measured: 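After 50 nM siRNA pool, branched-DNA assay measures six marker transcripts per well, minus blank, normalised to the geometric mean of two housekeeping transcripts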
# Reading the numbers: BNIP3L mRNA: higher = more BNIP3L transcript after knockdown; NDRG1 mRNA: higher = more NDRG1 transcript after knockdown; BNIP3 mRNA: higher = more BNIP3 transcript after knockdown; ALDOC mRNA: higher = more ALDOC transcript after knockdown; ACSL5 mRNA: higher = more ACSL5 transcript after knockdown
# This is a random part of about 14,000 deposited reagents. No sequences are given here. Not given: the time to read-out.
gene symbol,PubChem SID,"BNIP3L mRNA, set 1","NDRG1 mRNA, set 1","BNIP3 mRNA, set 1","ALDOC mRNA, set 1","ACSL5 mRNA, set 1"
TMEM101 (GeneID 84336),SID364003956,0.254,0.276,0.309,0.107,0.395
NRIP1 (GeneID 8204),SID363994587,0.128,0.118,0.333,0.00789,0.226
GCLM (GeneID 2730),SID363993268,0.0557,0.119,0.245,0.0217,0.0826
ZNF654 (GeneID 55279),SID364000950,0.0892,0.168,0.267,0.0265,0.149
CA14 (GeneID 23632),SID363998061,0.14,0.223,0.403,0.0492,0.0672
HELLS (GeneID 3070),SID364000751,0.126,0.195,0.362,0.0246,0.209
PPFIA3 (GeneID 8541),SID363994735,0.0798,0.105,0.301,0.0367,0.0947
APOBEC3B (GeneID 9582),SID363995849,0.156,0.134,0.246,0.0194,0.0978
NID2 (GeneID 22795),SID363998003,0.0623,0.11,0.275,0.00977,0.139
NUCKS1 (GeneID 64710),SID364002509,0.138,0.141,0.295,0.0223,0.106
RCVRN (GeneID 5957),SID363994058,0.104,0.0813,0.364,0.0462,0.11
AHSA1 (GeneID 10598),SID363998059,0.0551,0.123,0.264,0.0252,0.174
PSG1 (GeneID 5669),SID363997661,0.127,0.169,0.257,0.0213,0.313
CRYBG2 (GeneID 55057),SID364000682,0.0784,0.091,0.245,0.0593,0.173
MYL5 (GeneID 4636),SID363993650,0.274,0.46,0.727,0.0693,0.194
ALDOC (GeneID 230),SID363996092,0.0527,0.234,0.364,0.00228,0.138
PSG7 (GeneID 5676),SID363993940,0.191,0.144,0.244,0.0256,0.215
PRDM15 (GeneID 63977),SID364002342,0.11,0.316,0.307,0.00831,0.296
ACSL4 (GeneID 2182),SID363995440,0.0777,0.121,0.237,0.0165,0.16
MYO18A (GeneID 399687),SID363995699,0.213,0.181,0.273,0.0343,0.204

2 entries from above, ordered by “BNIP3L mRNA, set 1”, descending:
gene symbol,PubChem SID,"BNIP3L mRNA, set 1","NDRG1 mRNA, set 1","BNIP3 mRNA, set 1","ALDOC mRNA, set 1","ACSL5 mRNA, set 1"
MYO18A (GeneID 399687),SID363995699,0.213,0.181,0.273,0.0343,0.204
ACSL4 (GeneID 2182),SID363995440,0.0777,0.121,0.237,0.0165,0.16
